These results are taken from patent publication EP4574844A1.

Sequences of proteins named here, by UniProt entry; tags and fusion partners are left off. A change or cut given only in a name is not applied to a line headed by its entry. A line that says so, or that is headed by a name, gives the form on record, which may keep a tag or linker.
recombinant cynomolgus PDL1 (G7PSE7, form named): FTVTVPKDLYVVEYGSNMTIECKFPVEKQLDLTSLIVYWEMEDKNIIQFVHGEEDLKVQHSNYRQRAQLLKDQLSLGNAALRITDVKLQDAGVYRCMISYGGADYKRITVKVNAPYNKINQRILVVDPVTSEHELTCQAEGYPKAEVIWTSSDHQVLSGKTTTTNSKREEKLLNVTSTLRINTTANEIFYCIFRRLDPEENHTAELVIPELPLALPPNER

B1: PRO4245 (scFv)
scFv: DIQMTQSPSSLSASVGDRVTITCQASQSIGTYLAWYQQKPGKPPKLLIYRGGILASGVPSRFSGSGSGTDFTLTISSLQPEDFATYYCQSNFYSDSTTIGPNAFGTGTKVTVLGGGGGSGGGGSGGGGSGGGGSQQLVESGGGLVQPGGSLRLSCAASGFSFNSDYWIYWVRQAPGKGLEWIASIYGGSSGNTQYASWAQGRFTISKDNSKNTVYLQMNSLRAEDSAVYFCARGYVDYGGATDLWGQGTLVKVSS
B2: PRO1392 (scFv)
scFv: DIQMTQSPSSLSASVGDRVTITCQASQSINDYLAWYQQKPGKAPKLLIYKASTLASGVPSRFSGSGSGTDFTLTISSLQPEDFATYYCQQGYIITDIDNVFGTGTKVTVLGGGGGSGGGGSGGGGSGGGGSQVQLQESGPGLVKPSETLSLTCKASGFSFSSGYDMCWVRQPPGKGLEWIACVVAGSVDITYYASWAKGRVTISKDSSKNQVSLKLSSVTAADTAVYYCARKDAYSDAFNLWGQGTLVTVSS
B3: PRO3891 (scFv)
scFv: B2 scFv with A51G, S52G, T224S, T249K
B4: PRO1347 (scFv)
scFv: DIQMTQSPASLSASVGDRVTITCQASQSIGTYLAWYQQKPGKPPKLLIYRAFILASGVPSRFSGSGSGTDFTLTISSLQPEDFATYYCQSNFYSDSTTIGPNAFGTGTKVTVLGGGGGSGGGGSGGGGSGGGGSEVQLVESGGGLVQPGGSLRLSCAASGFSFNSDYWIYWVRQAPGKGLEWIACIYGGSSGNTQYASWAQGRFTISRDNSKNTVYLQMNSLRAEDTAVYFCARGYVDYGGATDLWGQGTLVTVSS
B5: PRO2230 (scFv)
scFv: B4 scFv with C185S

Where a chain is given by its changes, count along the chain named. These are yes or no findings as the source states them, for the method shown. Some binding calls cover weakened binding; strength is not graded here.

This assay deals with recombinant cynomolgus PDL1 (cynomolgus monkey) (UniProt G7PSE7). Put plainly: SPR.
Regarding B1, the binding entry is reported as “binds”.

Turning to B2, the binding result was “binds”.

For B3, the binding result is on record as “binds”.

B4: the binding entry is recorded as “binds”.

As for B5, the binding entry is “binds”.
